The supplement of paper PMC10849652
This is one part of the list.

Amino acid sequences for entries named in this document (tags omitted). A change or cut given only in a name is not applied to a line headed by its entry.
UniProt Q8WUM4: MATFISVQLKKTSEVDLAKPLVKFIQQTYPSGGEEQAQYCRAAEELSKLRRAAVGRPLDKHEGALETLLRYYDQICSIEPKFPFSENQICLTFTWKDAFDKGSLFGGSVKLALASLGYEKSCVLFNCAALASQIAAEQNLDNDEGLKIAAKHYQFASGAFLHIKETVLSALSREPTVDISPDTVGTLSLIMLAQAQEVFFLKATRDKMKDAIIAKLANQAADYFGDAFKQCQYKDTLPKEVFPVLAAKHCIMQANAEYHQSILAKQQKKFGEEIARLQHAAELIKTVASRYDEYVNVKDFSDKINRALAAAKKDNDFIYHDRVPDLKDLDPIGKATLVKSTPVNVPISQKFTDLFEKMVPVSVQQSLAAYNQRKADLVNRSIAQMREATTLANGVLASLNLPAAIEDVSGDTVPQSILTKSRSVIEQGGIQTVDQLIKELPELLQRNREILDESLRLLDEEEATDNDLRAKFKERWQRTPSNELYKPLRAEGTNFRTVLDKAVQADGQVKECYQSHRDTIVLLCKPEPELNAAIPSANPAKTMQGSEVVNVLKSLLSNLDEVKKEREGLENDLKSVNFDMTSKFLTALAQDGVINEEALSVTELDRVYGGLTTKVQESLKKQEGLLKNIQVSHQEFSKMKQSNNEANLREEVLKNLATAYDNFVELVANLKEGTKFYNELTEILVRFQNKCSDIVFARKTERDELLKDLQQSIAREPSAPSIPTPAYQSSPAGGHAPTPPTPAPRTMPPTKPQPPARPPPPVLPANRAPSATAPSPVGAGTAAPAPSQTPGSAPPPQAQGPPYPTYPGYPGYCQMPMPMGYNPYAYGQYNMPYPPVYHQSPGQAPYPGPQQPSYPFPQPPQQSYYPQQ
UniProt Q5VU43: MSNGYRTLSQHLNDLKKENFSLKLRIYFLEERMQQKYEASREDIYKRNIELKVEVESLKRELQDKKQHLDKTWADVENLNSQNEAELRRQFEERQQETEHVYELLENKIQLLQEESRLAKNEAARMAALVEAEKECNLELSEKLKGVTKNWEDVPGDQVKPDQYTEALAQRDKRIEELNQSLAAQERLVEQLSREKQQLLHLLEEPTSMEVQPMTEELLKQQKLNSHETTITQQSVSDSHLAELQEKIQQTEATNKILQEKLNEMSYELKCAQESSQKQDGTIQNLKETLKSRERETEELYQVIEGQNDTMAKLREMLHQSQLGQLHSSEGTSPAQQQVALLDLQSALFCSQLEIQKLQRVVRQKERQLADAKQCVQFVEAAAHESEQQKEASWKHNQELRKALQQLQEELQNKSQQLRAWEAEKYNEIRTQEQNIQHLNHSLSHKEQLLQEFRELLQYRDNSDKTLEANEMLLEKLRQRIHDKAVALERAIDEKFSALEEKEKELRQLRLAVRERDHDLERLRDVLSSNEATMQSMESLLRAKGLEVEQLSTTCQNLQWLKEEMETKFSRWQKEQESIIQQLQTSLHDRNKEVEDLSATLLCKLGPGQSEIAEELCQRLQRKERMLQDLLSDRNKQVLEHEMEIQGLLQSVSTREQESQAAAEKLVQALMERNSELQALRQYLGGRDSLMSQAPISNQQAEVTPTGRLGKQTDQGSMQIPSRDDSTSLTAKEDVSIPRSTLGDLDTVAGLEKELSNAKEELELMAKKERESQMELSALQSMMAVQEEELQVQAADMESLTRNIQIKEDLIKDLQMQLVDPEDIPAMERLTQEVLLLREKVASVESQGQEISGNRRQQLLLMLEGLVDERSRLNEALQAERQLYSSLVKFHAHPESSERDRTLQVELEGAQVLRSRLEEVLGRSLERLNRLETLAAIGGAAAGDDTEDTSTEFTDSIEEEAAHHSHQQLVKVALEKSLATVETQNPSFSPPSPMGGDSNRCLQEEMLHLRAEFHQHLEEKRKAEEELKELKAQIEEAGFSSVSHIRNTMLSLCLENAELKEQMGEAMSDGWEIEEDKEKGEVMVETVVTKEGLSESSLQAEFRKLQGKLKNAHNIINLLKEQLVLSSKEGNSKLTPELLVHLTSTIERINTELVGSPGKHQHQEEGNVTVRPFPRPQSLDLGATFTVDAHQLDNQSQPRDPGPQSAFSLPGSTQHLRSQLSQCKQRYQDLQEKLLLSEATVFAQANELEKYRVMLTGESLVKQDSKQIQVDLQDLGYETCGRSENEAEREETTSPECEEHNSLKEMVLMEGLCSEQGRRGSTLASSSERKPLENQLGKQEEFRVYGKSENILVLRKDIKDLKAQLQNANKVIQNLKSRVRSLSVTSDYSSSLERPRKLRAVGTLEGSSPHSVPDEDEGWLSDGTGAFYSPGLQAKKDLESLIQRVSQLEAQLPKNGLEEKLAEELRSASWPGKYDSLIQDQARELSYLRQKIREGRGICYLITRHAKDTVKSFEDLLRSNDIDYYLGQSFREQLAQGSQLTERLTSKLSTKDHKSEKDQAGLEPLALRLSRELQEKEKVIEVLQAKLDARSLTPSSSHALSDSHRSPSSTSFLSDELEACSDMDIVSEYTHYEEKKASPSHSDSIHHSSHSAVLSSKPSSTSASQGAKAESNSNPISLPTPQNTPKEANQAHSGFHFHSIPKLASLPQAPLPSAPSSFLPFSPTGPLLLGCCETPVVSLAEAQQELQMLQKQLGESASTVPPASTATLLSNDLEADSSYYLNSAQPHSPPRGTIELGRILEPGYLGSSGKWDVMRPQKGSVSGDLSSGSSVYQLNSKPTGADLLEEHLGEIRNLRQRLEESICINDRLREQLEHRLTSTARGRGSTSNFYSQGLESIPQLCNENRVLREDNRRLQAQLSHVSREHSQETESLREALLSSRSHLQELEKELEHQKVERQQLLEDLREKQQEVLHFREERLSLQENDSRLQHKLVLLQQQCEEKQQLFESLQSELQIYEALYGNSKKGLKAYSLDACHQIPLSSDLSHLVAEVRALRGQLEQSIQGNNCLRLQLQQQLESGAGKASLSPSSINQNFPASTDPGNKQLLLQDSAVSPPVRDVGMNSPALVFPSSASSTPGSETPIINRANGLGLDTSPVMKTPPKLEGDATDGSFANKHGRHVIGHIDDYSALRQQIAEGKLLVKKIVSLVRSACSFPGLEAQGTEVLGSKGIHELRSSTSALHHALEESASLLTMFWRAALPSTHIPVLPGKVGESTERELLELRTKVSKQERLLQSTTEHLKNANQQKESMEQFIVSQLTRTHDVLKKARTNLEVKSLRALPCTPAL
UniProt Q9P0J1: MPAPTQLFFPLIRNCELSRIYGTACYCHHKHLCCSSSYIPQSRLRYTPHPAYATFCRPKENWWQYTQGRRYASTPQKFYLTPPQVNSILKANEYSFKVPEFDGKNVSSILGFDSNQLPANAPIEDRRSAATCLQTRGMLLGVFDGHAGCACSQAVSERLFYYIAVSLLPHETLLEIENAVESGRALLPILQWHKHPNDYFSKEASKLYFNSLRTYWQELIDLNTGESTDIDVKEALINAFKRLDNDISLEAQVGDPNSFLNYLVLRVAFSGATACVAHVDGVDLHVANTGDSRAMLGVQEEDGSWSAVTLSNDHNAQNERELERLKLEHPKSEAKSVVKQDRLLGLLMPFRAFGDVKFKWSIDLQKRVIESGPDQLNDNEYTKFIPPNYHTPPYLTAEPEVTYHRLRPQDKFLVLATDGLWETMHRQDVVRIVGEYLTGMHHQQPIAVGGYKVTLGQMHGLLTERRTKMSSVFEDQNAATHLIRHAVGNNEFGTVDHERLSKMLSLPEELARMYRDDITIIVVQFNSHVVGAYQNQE
UniProt Q86W56: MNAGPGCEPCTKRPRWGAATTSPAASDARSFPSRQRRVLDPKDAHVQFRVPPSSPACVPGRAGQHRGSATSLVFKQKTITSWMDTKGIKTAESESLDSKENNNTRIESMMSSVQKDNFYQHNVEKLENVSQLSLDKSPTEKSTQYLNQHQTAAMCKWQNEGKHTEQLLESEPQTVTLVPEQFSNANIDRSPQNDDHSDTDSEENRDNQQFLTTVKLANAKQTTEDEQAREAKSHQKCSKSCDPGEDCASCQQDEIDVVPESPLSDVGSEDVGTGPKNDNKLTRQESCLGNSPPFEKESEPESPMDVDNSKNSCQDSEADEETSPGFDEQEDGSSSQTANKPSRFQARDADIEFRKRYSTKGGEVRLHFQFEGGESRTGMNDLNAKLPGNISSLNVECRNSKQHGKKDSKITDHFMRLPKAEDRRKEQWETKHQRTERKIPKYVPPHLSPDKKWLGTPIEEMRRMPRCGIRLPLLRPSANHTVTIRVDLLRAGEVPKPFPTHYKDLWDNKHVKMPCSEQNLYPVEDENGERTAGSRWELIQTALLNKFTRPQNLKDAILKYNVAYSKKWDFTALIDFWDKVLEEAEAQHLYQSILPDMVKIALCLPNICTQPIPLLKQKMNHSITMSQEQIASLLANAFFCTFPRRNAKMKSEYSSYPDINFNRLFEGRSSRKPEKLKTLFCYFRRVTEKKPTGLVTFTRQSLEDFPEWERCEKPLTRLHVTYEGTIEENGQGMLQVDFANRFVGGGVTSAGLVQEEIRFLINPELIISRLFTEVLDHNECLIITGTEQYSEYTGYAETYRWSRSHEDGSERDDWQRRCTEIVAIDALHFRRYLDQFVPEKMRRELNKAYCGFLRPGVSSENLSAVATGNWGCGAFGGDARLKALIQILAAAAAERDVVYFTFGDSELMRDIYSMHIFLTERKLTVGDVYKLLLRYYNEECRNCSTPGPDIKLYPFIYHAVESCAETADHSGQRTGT
UniProt Q8N165: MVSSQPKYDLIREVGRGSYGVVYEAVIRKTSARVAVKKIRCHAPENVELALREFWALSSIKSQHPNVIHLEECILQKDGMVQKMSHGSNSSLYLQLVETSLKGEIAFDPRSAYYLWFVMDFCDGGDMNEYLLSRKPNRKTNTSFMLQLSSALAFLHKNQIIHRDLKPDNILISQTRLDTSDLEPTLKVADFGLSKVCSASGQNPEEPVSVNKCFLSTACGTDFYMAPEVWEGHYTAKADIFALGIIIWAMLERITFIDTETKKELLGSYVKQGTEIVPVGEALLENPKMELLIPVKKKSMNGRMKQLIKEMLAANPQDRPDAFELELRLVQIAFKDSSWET
UniProt Q9UBV8: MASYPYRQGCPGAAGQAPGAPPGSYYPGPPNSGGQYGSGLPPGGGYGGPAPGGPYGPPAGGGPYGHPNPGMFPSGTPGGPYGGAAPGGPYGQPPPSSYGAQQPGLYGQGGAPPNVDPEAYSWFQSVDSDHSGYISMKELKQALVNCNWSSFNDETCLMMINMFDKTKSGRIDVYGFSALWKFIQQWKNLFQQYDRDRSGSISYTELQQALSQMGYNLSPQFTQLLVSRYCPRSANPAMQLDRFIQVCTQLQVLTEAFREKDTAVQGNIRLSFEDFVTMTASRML
UniProt Q86TB9: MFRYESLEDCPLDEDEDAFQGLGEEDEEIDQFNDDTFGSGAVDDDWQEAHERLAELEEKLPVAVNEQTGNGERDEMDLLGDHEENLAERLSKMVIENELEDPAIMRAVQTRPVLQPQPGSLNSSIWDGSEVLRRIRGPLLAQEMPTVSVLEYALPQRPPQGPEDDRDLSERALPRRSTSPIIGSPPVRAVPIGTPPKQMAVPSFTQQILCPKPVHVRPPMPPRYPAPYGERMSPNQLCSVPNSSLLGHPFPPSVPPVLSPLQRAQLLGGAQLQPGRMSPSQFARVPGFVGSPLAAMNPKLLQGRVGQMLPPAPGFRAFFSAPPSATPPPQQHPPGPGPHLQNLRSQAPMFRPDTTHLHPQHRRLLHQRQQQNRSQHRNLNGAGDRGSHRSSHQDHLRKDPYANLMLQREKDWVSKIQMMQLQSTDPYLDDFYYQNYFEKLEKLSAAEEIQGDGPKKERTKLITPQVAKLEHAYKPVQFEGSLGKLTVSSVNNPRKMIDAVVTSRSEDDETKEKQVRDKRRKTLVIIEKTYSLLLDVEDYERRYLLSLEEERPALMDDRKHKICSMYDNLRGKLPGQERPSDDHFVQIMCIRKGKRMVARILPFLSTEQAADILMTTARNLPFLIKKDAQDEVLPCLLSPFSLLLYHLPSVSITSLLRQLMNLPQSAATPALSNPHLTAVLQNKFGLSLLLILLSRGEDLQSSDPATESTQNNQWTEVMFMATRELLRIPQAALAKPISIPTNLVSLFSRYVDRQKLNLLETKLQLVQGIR

Key:
Assay in all cases: log2 fold change, soluble protein after heating vs DMSO (PISA); higher = thermal stabilisation; K562 cells, 10 uM, 30 min; active = over 0.2 and 3.5 SD of the protein, either way, in both replicates (recomputed)
[1] = compound: CS(=O)(=O)c1ccc(-c2cnc(N)c(C(=O)Nc3ccccc3)n2)cc1
In short: (§1)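 Aliquots of K562 cells (2×10^6 cells/mL) treated with 10 μM compound for 30 min were heated for 3 min over 48°C-58°C. After pooling and extraction in PBS with 0.5% NP-40 at 4°C, soluble protein from a 21,000xg, 90 min spin was quantified by TMTpro 16plex LC-MS/MS with channel sums equalised. Thermal stability is expressed against control samples, from duplicates, as a log2 fold change.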

[2] = compound: C[C@@H](Oc1cc(-c2cnn(C3CCNCC3)c2)cnc1N)c1c(Cl)ccc(F)c1Cl [crizotinib]
In short: as §1

[3] = compound: C[C@@H]1COCCN1C2=NC(=NC(=C2)C3(CC3)S(=O)(=O)C)C4=C5C=CNC5=CC=C4
In short: as §1

[4] = compound: C[C@H](C1=CC=C(C=C1)C(=O)NC2=C3C=CNC3=NC=C2)N
In short: as §1

[5] = compound: Cc1cc(Nc2cc(CN3CCOCC3)c3nc(C)c(Cc4ccc(Cl)cc4F)n3n2)n[nH]1 [gandotinib]
In short: as §1

[6] = compound: Cc1cc(SCc2sc(-c3ccc(C(F)(F)F)cc3)nc2C)ccc1OCC(=O)O
In short: as §1

[7] = compound: Cc1ccc(-n2nc(C(C)(C)C)cc2NC(=O)Nc2ccc(OCCN3CCOCC3)c3ccccc23)cc1 [doramapimod]
In short: as §1

[8] = compound: Cc1ccc(C(=O)N(CCCN)[C@@H](c2nc3cc(Cl)ccc3c(=O)n2Cc2ccccc2)C(C)C)cc1 [ispinesib]
In short: as §1

[9] = compound: Cc1ccc(NC(=O)c2ccc(CN3CC[C@H](N(C)C)C3)c(C(F)(F)F)c2)cc1Nc1nccc(-c2cncnc2)n1 [bafetinib]
In short: as §1

[10] = compound: Cc1cccc(CC(=O)N2CCc3c2ccc(-c2cn(C)c4ncnc(N)c24)c3F)n1
In short: as §1

[11] = compound: Cc1cn(-c2cc(NC(=O)c3ccc(C)c(Nc4nccc(-c5cccnc5)n4)c3)cc(C(F)(F)F)c2)cn1 [nilotinib]
In short: as §1

[12] = compound: Cc1nc(Nc2n[nH]c3c2CN(C(=O)N[C@H](CN(C)C)c2ccccc2)C3(C)C)c2sccc2n1
In short: as §1

[13] = compound: Cc1nc(Nc2ncc(C(=O)Nc3c(C)cccc3Cl)s2)cc(N2CCN(CCO)CC2)n1 [dasatinib]
In short: as §1

[14] = compound: Cc1ncc(-c2ccnc(Nc3ccc(S(C)(=O)=O)cc3)n2)n1C(C)C
In short: as §1

[15] = compound: Cn1cc(-c2ccc3c(c2)CCN3C(=O)Cc2cccc(C(F)(F)F)c2)c2c(N)ncnc21
In short: as §1

[16] = compound: Cn1cc(-c2ccc3nnc(C(F)(F)c4ccc5ncccc5c4)n3n2)cn1
In short: as §1

[17] = compound: Cn1cncc1[C@@](N)(c1ccc(Cl)cc1)c1ccc2c(c1)c(-c1cccc(Cl)c1)cc(=O)n2C [tipifarnib]
In short: as §1

[18] = compound: FC(F)(F)c1ccc(/C=C/c2nc(COc3ccc(CCCCn4ccnn4)cc3)co2)cc1 [mubritinib]
In short: as §1

Target	log2 fold change [1]	log2 fold change [2]	log2 fold change [3]	log2 fold change [4]	log2 fold change [5]	log2 fold change [6]	log2 fold change [7]	log2 fold change [8]	log2 fold change [9]	log2 fold change [10]	log2 fold change [11]	log2 fold change [12]	log2 fold change [13]	log2 fold change [14]	log2 fold change [15]	log2 fold change [16]	log2 fold change [17]	log2 fold change [18]
PDCD6IP (UniProt Q8WUM4)	inactive: 0.078	inactive: -0.177	inactive: 0.067	inactive: 0.077	inactive: -0.117	inactive: 0.17	inactive: -0.042	inactive: -0.14	inactive: 0.042	inactive: 0.157	inactive: -0.116	inactive: -0.205	inactive: -0.283	inactive: 0.069	inactive: 0.016	inactive: 0.068	inactive: -0.221	inactive: 0.105
PDE4DIP isoform 4 (UniProt Q5VU43)	inactive: -0.007	inactive: 0.02	inactive: 0.134	inactive: -0.002	inactive: 0.106	inactive: 0.008	inactive: 0.01	inactive: -0.073	inactive: 0.022	inactive: -0.071	inactive: -0.054	inactive: -0.113	inactive: 0.037	inactive: -0.027	inactive: 0.021	inactive: 0.021	inactive: 0.038	inactive: 0.022
PDP1 isoform 2 (UniProt Q9P0J1)	inactive: 0.13	inactive: 0.091					inactive: -0.014		inactive: 0.057								inactive: -0.075	
PCNT (UniProt O95613)	inactive: 0.119	inactive: 0.023	inactive: 0.09	inactive: 0.153	inactive: 0.06	inactive: -0.006	inactive: -0.023	inactive: -0.099	inactive: -0.227	inactive: -0.324	inactive: -0.117	inactive: 0.045	inactive: 0.085	inactive: -0.002	inactive: -0.076	inactive: 0.107	inactive: 0.127	inactive: -0.004
PARG (UniProt Q86W56)	inactive: -0.027	inactive: -0.147	inactive: 0.013	inactive: 0.016	inactive: -0.094	inactive: 0.123	inactive: 0.015	inactive: -0.148	inactive: 0.166	inactive: 0.118	inactive: 0.004	inactive: -0.123	inactive: -0.162	inactive: -0.025	inactive: 0.093	inactive: -0.015	inactive: -0.061	inactive: 0.061
PDIK1L (UniProt Q8N165)	inactive: 0.009	inactive: -0.082	inactive: -0.003	inactive: 0.029		inactive: 0.017	inactive: 0.085	inactive: 0.039	inactive: 0.166		inactive: -0.026	active: 0.578	inactive: -0.081	inactive: -0.037	inactive: 0.05	inactive: 0.13	inactive: -0.152	inactive: 0.034
PEF1 (UniProt Q9UBV8)	inactive: 0.119	inactive: 0.094	inactive: 0.059	inactive: -0.102	inactive: -0.019	inactive: 0.019	inactive: -0.091	inactive: 0.208	inactive: -0.106	inactive: 0.089	inactive: -0.005	inactive: 0.012	inactive: -0.047	inactive: -0.013	inactive: 0.132	inactive: 0.113	inactive: -0.126	inactive: 0.099
PECAM1 (UniProt P16284)	inactive: 0.086	inactive: 0.145	inactive: 0.157	inactive: 0.034	inactive: -0.001	inactive: -0.03	inactive: -0.025	inactive: 0.099	inactive: -0.075	inactive: -0.011	inactive: 0.087	inactive: 0.097	inactive: 0.031	inactive: 0	inactive: -0.019	inactive: -0.013	inactive: 0.015	inactive: 0.022
PATL1 (UniProt Q86TB9)	inactive: -0.014	inactive: -0.201	inactive: -0.037	inactive: 0.122	inactive: -0.139	inactive: 0.039	inactive: 0.12	active: -0.339	inactive: -0.007	inactive: 0.034			inactive: -0.032		inactive: 0.08	inactive: -0.013	inactive: 0.039	inactive: -0.04
PDE2A (UniProt O00408)	inactive: -0.064	inactive: 0.004	inactive: 0.223	inactive: -0.108	inactive: 0.117	inactive: 0.045	inactive: -0.026	inactive: -0.067	inactive: 0.021	inactive: -0.02	inactive: 0.023	inactive: 0.016	inactive: -0.103	inactive: -0.012	inactive: 0.063	inactive: -0.03	inactive: -0.031	inactive: -0.051
